Results reported in PMC5996148.
Values joined by “and” are separate entries in the source; they are usually repeats but may differ in a detail not shown here. Equal values may be shown once. Some of the results follow.

Key:
Assay in all cases: protein microarray (ProtoArray v5.0), streptavidin-Alexa Fluor 647
Details in all cases: 3'-biotin; 20 mM Tris (pH 7.5), 5 mM MgCl2, 100 mM KCl, 0.1% Tween-20, A/T-rich and random oligonucleotide blockers; temperature not stated; high values mean tight binding
[1] = tested on: PYCR1 (human)
[2] = tested on: PYCR2 (human)
[3] = tested on: PYHIN1 (human)
[4] = tested on: Paladin (human)
[5] = tested on: Pantothenate kinase 1 (human)
[6] = tested on: Paralemmin-2 (human)
[7] = tested on: Parvalbumin alpha (human)
[8] = tested on: Peptidase inhibitor 16 (human)
[9] = tested on: Peptidyl-prolyl cis-trans isomerase-like 3 (human)
[10] = tested on: Peptidyl-tRNA hydrolase 2, mitochondrial (human)

Q: Which binding signal [1] does the source give for “GGGAGGCTGAGGCAGG [G4-1 biotinylated (PQS2)]” here?
A: -0.35 z-score

Q: What about the binding signal [2] of the same sequence?
A: -0.308 z-score

Q: And the binding signal [3]?
A: -0.343 z-score

Q: And the binding signal [4]?
A: -0.327 z-score

Q: What about the binding signal [5] of the same sequence?
A: -0.356 z-score and -0.329 z-score

Q: And the binding signal [6]?
A: -0.323 z-score

Q: And the binding signal [7]?
A: -0.334 z-score

Q: And the binding signal [8]?
A: -0.337 z-score

Q: And the binding signal [9]?
A: -0.356 z-score

Q: And the binding signal [10]?
A: 6.85 z-score
